No constants are given. Whether binding was seen depends on the method and setting. For some of these results: In cells and extracts the contact can be indirect. Some entries that bind do so weakly or less than the wild type.

The chains behind the UniProt entries cited, without tags or fusion partners.
UniProt O00571: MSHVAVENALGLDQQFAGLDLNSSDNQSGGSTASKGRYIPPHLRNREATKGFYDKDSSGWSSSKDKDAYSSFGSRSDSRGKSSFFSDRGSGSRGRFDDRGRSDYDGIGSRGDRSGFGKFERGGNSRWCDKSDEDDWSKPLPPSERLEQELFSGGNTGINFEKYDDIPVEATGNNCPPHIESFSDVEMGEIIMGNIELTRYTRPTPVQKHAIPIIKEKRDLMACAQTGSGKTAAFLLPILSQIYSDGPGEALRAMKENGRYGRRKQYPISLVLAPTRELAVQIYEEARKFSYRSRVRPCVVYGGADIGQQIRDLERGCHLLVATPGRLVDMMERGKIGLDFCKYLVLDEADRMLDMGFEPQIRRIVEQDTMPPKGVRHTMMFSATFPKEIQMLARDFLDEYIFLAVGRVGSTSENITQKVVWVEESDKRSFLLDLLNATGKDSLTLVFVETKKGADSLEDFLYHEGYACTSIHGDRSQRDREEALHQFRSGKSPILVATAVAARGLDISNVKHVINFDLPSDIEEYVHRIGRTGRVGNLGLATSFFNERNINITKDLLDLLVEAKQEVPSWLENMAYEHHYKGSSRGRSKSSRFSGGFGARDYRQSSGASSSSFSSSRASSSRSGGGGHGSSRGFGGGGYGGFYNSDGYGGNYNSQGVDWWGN
UniProt Q62167: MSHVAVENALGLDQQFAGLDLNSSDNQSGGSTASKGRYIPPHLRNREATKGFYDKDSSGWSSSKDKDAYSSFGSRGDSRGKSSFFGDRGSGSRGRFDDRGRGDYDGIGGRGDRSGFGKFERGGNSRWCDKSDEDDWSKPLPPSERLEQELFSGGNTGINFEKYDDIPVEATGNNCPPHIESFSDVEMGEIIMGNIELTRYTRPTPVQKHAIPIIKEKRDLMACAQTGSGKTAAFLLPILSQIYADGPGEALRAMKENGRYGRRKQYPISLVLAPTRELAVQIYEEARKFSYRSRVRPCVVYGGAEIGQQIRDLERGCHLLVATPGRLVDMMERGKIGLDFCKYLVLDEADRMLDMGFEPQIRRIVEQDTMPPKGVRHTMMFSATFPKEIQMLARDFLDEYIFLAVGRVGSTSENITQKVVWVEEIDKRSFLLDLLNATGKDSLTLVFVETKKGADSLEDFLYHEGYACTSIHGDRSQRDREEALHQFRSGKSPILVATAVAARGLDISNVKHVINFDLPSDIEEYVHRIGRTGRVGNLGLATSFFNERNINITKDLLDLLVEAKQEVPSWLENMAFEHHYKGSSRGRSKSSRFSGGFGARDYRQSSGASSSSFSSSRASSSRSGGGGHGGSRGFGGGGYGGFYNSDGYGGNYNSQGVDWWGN

The target in assay [1] is Kindlin-2 (endogenous, human MIA PaCa-2 cells) (human (endogenous in MIA PaCa-2)) (UniProt Q96AC1). The assay can be described thus: co-IP; endogenous proteins; 2 mg lysate of primary mouse PCCs or human MIA PaCa-2 cells; anti-Kindlin-2 (clone 3A3) or anti-DDX3X antibody overnight at 4 C, protein A/G Plus-Agarose, control mouse or rabbit IgG; immunoblot.
For assay [2], the target named is wild-type full-length Kindlin-2 (lentiviral, pLVX-K2-Hyg) (UniProt Q96AC1). The assay can be described thus: co-IP; lysates of primary PCCs from KPC;K2 WT or KPC;K2 cKO mice infected with lentivirus encoding K2 WT, K2 ΔF1 or empty vector; anti-Kindlin-2 antibody; immunoblot.
The target in assay [3] is T1, Kindlin-2 (endogenous, mouse primary pancreatic cancer cells) (mouse (endogenous in primary PCCs)) (UniProt Q8CIB5).
T1 sequence: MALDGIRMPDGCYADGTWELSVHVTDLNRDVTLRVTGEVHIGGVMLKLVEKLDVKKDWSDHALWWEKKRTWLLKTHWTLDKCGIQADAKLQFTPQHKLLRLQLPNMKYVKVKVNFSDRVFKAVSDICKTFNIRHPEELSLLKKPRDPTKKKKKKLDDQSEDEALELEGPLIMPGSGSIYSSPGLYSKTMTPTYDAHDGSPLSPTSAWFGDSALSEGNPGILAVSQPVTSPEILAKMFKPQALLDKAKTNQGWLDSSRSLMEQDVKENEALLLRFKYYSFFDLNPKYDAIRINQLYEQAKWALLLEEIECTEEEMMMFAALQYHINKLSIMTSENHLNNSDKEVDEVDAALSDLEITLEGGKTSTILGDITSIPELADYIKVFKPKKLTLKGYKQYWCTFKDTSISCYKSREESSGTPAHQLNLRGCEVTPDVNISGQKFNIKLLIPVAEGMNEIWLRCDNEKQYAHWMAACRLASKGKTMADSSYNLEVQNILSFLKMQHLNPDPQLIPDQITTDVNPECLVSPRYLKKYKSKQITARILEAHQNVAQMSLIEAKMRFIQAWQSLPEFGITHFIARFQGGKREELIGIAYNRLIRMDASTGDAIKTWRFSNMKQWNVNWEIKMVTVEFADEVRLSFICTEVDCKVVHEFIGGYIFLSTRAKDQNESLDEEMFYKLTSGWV
The experiment in a line: co-IP; endogenous proteins; 2 mg lysate of primary mouse PCCs or human MIA PaCa-2 cells; anti-Kindlin-2 (clone 3A3) or anti-DDX3X antibody overnight at 4 C, protein A/G Plus-Agarose, control mouse or rabbit IgG; immunoblot.

In assay [4] the target is GST-Kindlin-2 full-length (UniProt Q96AC1). The assay can be described thus: pull-down; GST or GST-fusion proteins of Kindlin-2 on Glutathione-Sepharose, mixed with lysates of primary PCCs from KPC;WT mice overnight at 4 C; washed with PBS, 0.2% Triton X-100; immunoblot for endogenous DDX3X; only the target purified.
A further assay deals with GST-DDX3X full-length (UniProt O00571). The assay can be described thus: biotinylated RNA pull-down; biotinylated c-Myc 5'UTR RNA or control RNA on streptavidin magnetic beads with purified GST-K2/GST or GST-K2/GST-DDX3X; immunoblot with anti-Kindlin-2 antibodies; both purified.
Assay [5] has as its target DDX3X (endogenous, human MIA PaCa-2 cells) (human (endogenous in MIA PaCa-2)) (UniProt O00571). The experiment in a line: co-IP; endogenous proteins; 2 mg lysate of primary mouse PCCs or human MIA PaCa-2 cells; anti-Kindlin-2 (clone 3A3) or anti-DDX3X antibody overnight at 4 C, protein A/G Plus-Agarose, control mouse or rabbit IgG; immunoblot.
Assay [6] addresses DDX3X (endogenous, mouse primary pancreatic cancer cells) (mouse (endogenous in primary PCCs)) (UniProt Q62167). The assay is described as above.

“DDX3X (endogenous, human MIA PaCa-2 cells) (from UniProt O00571 1-662)”: the binding result in assay [1] is on record as “binds”. Take “DDX3X (endogenous, mouse primary pancreatic cancer cells) (from UniProt Q62167 1-662)”: the binding entry in assay [2], in assay [3] and in assay [4] was “binds” in each case. For the molecule “GST-Kindlin-2 full-length (from UniProt Q96AC1 1-680)”, the binding entry with GST-DDX3X full-length is given as “binds”. On to “Kindlin-2 (endogenous, human MIA PaCa-2 cells) (from UniProt Q96AC1 1-680)”, for which the binding result in assay [5] was “binds”.

B1: Kindlin-2 (endogenous, mouse primary pancreatic cancer cells) (protein, UniProt Q8CIB5 1-680)
chain: MALDGIRMPDGCYADGTWELSVHVTDLNRDVTLRVTGEVHIGGVMLKLVEKLDVKKDWSDHALWWEKKRTWLLKTHWTLDKCGIQADAKLQFTPQHKLLRLQLPNMKYVKVKVNFSDRVFKAVSDICKTFNIRHPEELSLLKKPRDPTKKKKKKLDDQSEDEALELEGPLIMPGSGSIYSSPGLYSKTMTPTYDAHDGSPLSPTSAWFGDSALSEGNPGILAVSQPVTSPEILAKMFKPQALLDKAKTNQGWLDSSRSLMEQDVKENEALLLRFKYYSFFDLNPKYDAIRINQLYEQAKWALLLEEIECTEEEMMMFAALQYHINKLSIMTSENHLNNSDKEVDEVDAALSDLEITLEGGKTSTILGDITSIPELADYIKVFKPKKLTLKGYKQYWCTFKDTSISCYKSREESSGTPAHQLNLRGCEVTPDVNISGQKFNIKLLIPVAEGMNEIWLRCDNEKQYAHWMAACRLASKGKTMADSSYNLEVQNILSFLKMQHLNPDPQLIPDQITTDVNPECLVSPRYLKKYKSKQITARILEAHQNVAQMSLIEAKMRFIQAWQSLPEFGITHFIARFQGGKREELIGIAYNRLIRMDASTGDAIKTWRFSNMKQWNVNWEIKMVTVEFADEVRLSFICTEVDCKVVHEFIGGYIFLSTRAKDQNESLDEEMFYKLTSGWV
On to B1, for which the binding result in assay [6] is “binds”.
